Test results reported in the supplement of paper PMC10849652.
This is one part of the list.

Protein sequences, listed by entry. Tags and fused reporters are not part of them. Lines headed by an entry give the natural chain unless they say otherwise; changes in a name come on top.
UniProt Q8IUI8: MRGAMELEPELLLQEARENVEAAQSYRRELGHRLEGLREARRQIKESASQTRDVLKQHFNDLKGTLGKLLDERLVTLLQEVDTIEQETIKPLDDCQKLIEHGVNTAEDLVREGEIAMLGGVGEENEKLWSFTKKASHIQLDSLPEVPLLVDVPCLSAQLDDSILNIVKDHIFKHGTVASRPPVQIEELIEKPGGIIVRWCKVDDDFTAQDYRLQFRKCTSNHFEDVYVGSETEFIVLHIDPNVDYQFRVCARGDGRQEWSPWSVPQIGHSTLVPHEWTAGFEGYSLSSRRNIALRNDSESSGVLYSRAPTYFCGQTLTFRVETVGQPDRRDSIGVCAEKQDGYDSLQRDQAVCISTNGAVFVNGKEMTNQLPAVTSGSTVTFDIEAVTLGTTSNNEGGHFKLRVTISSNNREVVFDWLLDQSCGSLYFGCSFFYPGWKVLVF
UniProt O60716: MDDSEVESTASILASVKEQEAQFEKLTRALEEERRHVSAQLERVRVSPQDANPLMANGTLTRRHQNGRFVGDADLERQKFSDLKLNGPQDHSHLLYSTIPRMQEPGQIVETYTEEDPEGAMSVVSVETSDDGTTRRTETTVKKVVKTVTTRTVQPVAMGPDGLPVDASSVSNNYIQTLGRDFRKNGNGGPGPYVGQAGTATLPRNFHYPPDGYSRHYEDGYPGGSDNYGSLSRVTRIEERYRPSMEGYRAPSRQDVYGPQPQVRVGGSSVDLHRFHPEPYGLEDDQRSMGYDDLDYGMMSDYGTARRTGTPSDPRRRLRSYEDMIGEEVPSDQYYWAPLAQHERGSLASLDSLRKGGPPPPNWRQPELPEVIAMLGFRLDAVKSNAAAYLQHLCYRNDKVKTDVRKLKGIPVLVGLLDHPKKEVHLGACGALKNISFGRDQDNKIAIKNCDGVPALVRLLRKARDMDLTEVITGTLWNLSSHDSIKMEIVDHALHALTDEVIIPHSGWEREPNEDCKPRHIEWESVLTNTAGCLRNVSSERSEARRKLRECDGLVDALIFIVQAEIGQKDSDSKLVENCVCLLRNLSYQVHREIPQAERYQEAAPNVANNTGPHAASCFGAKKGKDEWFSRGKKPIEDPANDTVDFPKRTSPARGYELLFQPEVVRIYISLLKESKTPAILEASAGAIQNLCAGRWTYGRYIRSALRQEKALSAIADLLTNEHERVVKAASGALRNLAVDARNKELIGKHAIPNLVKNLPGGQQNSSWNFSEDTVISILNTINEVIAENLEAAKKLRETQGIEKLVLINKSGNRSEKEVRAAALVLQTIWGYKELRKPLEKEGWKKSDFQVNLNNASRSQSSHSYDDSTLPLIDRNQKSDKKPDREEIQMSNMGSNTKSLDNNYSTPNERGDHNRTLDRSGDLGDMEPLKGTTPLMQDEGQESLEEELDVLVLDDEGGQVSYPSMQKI
UniProt P21291: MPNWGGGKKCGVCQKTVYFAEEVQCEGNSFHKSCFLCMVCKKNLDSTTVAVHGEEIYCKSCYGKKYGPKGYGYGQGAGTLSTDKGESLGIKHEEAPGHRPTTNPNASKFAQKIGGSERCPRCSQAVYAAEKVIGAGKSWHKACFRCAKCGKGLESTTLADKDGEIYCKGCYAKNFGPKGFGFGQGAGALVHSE
UniProt Q7Z7A3: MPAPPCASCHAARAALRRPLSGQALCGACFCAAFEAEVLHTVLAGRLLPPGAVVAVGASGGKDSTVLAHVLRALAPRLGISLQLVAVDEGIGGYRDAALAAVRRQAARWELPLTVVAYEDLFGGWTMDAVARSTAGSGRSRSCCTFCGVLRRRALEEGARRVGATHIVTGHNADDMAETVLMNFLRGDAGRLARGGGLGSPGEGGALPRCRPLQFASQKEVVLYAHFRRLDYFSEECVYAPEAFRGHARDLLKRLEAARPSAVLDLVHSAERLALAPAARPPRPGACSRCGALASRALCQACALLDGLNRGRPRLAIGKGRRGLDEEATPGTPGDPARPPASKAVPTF
UniProt Q9Y6M4: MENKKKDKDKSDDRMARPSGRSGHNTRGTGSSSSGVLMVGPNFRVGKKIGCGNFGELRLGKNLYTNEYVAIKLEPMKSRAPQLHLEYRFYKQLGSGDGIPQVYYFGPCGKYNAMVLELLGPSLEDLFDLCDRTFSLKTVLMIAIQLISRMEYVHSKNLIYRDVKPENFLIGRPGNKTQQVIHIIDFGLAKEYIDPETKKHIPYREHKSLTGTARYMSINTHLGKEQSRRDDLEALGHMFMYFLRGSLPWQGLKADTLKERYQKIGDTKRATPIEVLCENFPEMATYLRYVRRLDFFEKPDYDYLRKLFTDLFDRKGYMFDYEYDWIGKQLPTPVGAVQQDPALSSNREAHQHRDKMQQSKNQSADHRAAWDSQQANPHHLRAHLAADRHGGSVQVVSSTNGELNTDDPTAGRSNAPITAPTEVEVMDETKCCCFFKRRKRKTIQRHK
UniProt Q8TB03: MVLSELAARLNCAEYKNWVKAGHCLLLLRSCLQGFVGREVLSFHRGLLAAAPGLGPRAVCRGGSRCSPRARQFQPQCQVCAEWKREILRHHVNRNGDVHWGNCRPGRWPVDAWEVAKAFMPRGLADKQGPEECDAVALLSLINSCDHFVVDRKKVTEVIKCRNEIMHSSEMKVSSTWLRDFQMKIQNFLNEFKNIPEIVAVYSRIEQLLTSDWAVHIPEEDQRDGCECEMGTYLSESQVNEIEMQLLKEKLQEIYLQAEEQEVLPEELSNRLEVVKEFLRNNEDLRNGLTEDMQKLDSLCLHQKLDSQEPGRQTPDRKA
UniProt Q7L576: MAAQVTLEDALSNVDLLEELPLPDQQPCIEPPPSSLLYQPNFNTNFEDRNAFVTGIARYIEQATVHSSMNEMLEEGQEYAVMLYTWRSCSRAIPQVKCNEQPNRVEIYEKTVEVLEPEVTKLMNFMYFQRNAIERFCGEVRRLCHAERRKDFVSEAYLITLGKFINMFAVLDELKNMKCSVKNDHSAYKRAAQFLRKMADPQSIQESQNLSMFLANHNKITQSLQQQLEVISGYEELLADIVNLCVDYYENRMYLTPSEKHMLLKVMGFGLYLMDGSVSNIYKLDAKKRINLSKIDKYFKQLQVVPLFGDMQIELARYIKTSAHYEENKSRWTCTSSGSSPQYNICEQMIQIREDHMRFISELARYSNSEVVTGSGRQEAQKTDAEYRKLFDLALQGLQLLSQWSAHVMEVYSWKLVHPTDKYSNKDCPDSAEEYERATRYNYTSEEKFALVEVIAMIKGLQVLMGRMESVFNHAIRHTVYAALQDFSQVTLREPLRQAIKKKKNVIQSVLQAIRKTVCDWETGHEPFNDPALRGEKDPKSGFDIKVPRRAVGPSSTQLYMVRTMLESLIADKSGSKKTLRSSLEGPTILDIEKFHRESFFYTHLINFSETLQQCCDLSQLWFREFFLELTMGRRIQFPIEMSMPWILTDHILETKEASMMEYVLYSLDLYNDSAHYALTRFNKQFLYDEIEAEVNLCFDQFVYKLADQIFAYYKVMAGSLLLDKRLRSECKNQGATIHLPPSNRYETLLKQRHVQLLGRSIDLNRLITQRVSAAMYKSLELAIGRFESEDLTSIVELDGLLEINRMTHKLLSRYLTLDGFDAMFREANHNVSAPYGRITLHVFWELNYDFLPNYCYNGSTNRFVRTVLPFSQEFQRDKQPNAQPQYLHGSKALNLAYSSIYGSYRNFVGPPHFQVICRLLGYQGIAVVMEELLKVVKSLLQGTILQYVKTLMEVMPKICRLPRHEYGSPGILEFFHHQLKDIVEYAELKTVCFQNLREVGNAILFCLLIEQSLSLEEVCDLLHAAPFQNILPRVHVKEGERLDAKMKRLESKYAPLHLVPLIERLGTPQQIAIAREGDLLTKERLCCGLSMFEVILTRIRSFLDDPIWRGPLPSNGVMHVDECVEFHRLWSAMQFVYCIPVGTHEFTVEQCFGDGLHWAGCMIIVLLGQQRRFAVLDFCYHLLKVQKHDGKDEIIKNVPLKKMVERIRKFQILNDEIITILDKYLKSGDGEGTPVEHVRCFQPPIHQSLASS
UniProt Q93034, whole entry, looked up: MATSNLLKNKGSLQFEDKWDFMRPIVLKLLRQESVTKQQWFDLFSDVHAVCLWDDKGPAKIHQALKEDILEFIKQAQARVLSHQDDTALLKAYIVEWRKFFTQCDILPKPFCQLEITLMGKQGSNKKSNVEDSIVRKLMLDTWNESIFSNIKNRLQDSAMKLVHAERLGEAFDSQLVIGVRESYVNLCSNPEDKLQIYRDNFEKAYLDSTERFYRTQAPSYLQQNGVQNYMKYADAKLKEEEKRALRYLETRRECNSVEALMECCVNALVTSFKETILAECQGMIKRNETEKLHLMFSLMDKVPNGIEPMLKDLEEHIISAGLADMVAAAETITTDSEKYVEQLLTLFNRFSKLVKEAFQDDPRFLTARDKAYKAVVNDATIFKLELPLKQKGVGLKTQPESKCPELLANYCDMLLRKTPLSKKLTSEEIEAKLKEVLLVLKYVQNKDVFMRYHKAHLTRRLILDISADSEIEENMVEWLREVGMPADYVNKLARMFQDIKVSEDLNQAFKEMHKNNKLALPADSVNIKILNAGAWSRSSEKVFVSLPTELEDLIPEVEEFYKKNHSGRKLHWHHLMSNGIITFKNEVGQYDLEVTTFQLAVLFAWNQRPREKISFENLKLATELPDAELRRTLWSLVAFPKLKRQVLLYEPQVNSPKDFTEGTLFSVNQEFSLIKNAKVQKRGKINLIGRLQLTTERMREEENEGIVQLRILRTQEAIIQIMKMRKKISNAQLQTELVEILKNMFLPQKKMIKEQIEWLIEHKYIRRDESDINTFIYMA
UniProt P16220: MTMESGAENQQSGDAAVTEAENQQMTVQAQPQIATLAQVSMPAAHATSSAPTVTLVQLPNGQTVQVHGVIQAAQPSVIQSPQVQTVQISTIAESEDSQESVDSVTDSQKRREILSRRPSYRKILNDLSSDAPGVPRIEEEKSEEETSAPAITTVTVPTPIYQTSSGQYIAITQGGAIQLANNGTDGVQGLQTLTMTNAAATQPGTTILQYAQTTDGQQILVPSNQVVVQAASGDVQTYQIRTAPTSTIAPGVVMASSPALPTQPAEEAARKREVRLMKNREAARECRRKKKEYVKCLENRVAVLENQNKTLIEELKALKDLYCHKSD
UniProt P04080: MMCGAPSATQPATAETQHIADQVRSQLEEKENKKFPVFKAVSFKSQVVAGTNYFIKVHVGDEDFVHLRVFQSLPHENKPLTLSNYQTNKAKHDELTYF
UniProt Q6UW02: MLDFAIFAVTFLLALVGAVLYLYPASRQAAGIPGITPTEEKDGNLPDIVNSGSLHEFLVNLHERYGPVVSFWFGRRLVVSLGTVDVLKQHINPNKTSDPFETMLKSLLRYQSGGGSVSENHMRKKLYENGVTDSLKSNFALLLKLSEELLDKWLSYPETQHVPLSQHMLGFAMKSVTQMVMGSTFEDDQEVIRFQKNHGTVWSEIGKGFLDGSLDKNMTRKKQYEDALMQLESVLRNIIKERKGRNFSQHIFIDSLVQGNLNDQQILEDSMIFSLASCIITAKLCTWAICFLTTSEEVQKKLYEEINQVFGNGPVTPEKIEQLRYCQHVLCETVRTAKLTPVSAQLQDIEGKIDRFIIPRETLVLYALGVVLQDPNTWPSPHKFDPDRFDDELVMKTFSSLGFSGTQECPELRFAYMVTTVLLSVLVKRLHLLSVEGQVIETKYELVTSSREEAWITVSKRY
UniProt Q6UX04: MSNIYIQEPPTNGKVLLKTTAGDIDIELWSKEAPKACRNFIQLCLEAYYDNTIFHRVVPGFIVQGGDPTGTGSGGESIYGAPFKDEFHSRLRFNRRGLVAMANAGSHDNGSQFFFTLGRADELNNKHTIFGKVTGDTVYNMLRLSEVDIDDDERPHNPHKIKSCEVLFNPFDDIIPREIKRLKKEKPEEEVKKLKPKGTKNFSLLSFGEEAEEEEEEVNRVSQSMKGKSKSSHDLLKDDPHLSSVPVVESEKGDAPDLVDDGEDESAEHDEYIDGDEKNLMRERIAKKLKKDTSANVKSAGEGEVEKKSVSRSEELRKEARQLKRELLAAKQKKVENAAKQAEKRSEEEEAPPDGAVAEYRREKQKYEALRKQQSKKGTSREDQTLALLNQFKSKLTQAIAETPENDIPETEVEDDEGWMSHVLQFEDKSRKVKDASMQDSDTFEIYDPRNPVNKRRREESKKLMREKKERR
UniProt O75390: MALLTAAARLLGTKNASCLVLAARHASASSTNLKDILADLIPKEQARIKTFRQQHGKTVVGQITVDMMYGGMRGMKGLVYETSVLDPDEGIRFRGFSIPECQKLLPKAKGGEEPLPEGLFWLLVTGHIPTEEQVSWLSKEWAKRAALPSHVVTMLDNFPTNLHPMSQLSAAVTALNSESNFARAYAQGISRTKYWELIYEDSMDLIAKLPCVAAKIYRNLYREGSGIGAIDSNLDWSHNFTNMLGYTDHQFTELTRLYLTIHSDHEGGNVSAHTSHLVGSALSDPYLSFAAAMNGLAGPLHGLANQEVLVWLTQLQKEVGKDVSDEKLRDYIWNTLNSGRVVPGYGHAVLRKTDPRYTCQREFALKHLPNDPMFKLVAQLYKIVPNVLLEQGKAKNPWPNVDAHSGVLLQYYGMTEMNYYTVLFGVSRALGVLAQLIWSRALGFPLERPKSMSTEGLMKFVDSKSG

Assays:
Experiment in all cases: log2 fold change, soluble protein after heating vs DMSO (PISA); higher = thermal stabilisation; K562 lysate, 10 uM; active = over 0.2 and 3.5 SD of the protein, either way, in both replicates (recomputed)
alvocidib = compound: CN1CC[C@H](c2c(O)cc(O)c3c(=O)cc(-c4ccccc4Cl)oc23)[C@H](O)C1 [alvocidib]
In short: (§1)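 The values are log-two fold changes in thermal stability compared with solvent controls and come from duplicates. They were obtained by TMTpro 16plex LC-MS/MS, with channel sums equalised, on the supernatant after 21,000xg for 90 min. That supernatant came from crude K562 extract at 1 mg/mL protein treated with 10 μM compound for 30 min, heated for 3 min across 48°C-58°C, pooled and brought to 0.5% NP-40 at 4°C.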

Tubastatin A = compound: CN1CCc2c(c3ccccc3n2Cc2ccc(C(=O)NO)cc2)C1 [Tubastatin A]
In short: as §1

[1] = compound: CNC(=O)C1=CC=CC=C1NC2=NC(=NC=C2Cl)NC3=C(C=C(C=C3)N4CCOCC4)OC
In short: as §1

defactinib = compound: CNC(=O)c1ccc(Nc2ncc(C(F)(F)F)c(NCc3nccnc3N(C)S(C)(=O)=O)n2)cc1 [defactinib]
In short: as §1

[2] = compound: CNc1nc(-c2ccc3c(N)n[nH]c3c2)cc(N2C[C@@H](C(=O)NC3CCCCC3)CC[C@H]2C)n1
In short: as §1

encorafenib = compound: COC(=O)N[C@@H](C)CNc1nccc(-c2cn(C(C)C)nc2-c2cc(Cl)cc(NS(C)(=O)=O)c2F)n1 [encorafenib]
In short: as §1

[3] = compound: COC(=O)[C@H](CCSC)NC(=O)C1=C(C=C(C=C1)NC[C@H](CS)N)C2=CC=CC=C2
In short: as §1

alisertib = compound: COc1cc(Nc2ncc3c(n2)-c2ccc(Cl)cc2C(c2c(F)cccc2OC)=NC3)ccc1C(=O)O [alisertib]
In short: as §1

[4] = compound: COc1cc2nc(-c3cc(F)ccc3O)nc(N[C@@H]3CNC[C@H]3C(C)(C)O)c2cc1OC
In short: as §1

gefitinib = compound: COc1cc2ncnc(Nc3ccc(F)c(Cl)c3)c2cc1OCCCN1CCOCC1 [gefitinib]
In short: as §1

Target	log2 fold change (alvocidib)	log2 fold change (Tubastatin A)	log2 fold change [1]	log2 fold change (defactinib)	log2 fold change [2]	log2 fold change (encorafenib)	log2 fold change [3]	log2 fold change (alisertib)	log2 fold change [4]	log2 fold change (gefitinib)
CRLF3 (UniProt Q8IUI8)	inactive: -0.02	inactive: -0.036	inactive: 0.007	inactive: -0.019	inactive: 0.018	inactive: -0.01	inactive: 0.166	inactive: 0.01	inactive: 0.02	inactive: -0.005
CTNND1 isoform 3 (UniProt O60716)	inactive: -0.02	inactive: -0.159	inactive: 0.019	inactive: 0.045	inactive: -0.04	inactive: 0.013	inactive: 0.174	inactive: 0.026	inactive: 0.006	inactive: -0.023
CSRP1 (UniProt P21291)	inactive: -0.1	inactive: 0.08	inactive: 0.041	inactive: 0.025	inactive: 0.084	inactive: -0.048	inactive: -0.062	inactive: 0.007	inactive: 0.005	inactive: -0.037
CTU1 (UniProt Q7Z7A3)	inactive: -0.02	inactive: -0.001	inactive: 0.01	inactive: 0.032	inactive: 0.025	inactive: -0.018	inactive: -0.005	inactive: 0.021	inactive: 0.028	inactive: -0.083
CSNK1G3 (UniProt Q9Y6M4)	inactive: 0.032	inactive: 0.064	inactive: 0.014	inactive: 0.069	inactive: 0.03	inactive: 0.018	inactive: -0.033	inactive: -0.005	active: 0.459	inactive: -0.005
CXorf38 (UniProt Q8TB03)	inactive: 0	inactive: 0.039	inactive: 0.04	inactive: -0.012	inactive: -0.016	inactive: 0.02	inactive: -0.012	inactive: -0.021	inactive: -0.058	inactive: -0.056
CWC22 (UniProt Q9HCG8)	inactive: 0.112	inactive: -0.035	inactive: 0	inactive: -0.026	inactive: -0.036	inactive: 0.046	inactive: 0.093	inactive: -0.065	inactive: -0.058	inactive: -0.028
CRTC2 (UniProt Q53ET0)	inactive: 0.041	inactive: -0.041	inactive: 0.049	inactive: -0.107	inactive: 0.019	inactive: 0.07	inactive: 0.012	inactive: 0.065	inactive: -0.023	inactive: -0.008
CTR9 (UniProt Q6PD62)	inactive: -0.023	inactive: -0.008	inactive: 0.043	inactive: 0.015	inactive: -0.039	inactive: 0.001	inactive: 0.099	inactive: -0.001	inactive: 0.014	inactive: 0.012
CYFIP1 (UniProt Q7L576)	inactive: -0.03	inactive: -0.049	inactive: 0.023	inactive: -0.019	inactive: -0.039	inactive: -0.002	inactive: -0.02	inactive: -0.018	inactive: -0.017	inactive: 0.024
CXorf56 (UniProt Q9H5V9)	inactive: -0.053	inactive: -0.021	inactive: 0.022	inactive: -0.077	inactive: 0.007	inactive: 0.055	inactive: -0.021	inactive: -0.043	inactive: -0.011	inactive: 0.023
CTTN isoform 2 (UniProt Q14247)	inactive: 0.011	inactive: 0.059	inactive: 0	inactive: -0.008	inactive: 0.053	inactive: -0.018	inactive: 0.01	inactive: 0.012	inactive: 0.01	inactive: 0.016
CRKL (UniProt P46109)	inactive: -0.016	inactive: 0.041	inactive: 0.005	inactive: -0.004	inactive: 0.039	inactive: -0.002	inactive: -0.071	inactive: 0.006	inactive: 0.017	inactive: -0.004
CUL5 (UniProt Q93034)	inactive: -0.02	inactive: 0.007	inactive: -0.003	inactive: -0.005	inactive: -0.004	inactive: 0.01	inactive: -0.078	inactive: 0.004	inactive: 0.001	inactive: -0.015
CTNNA1 (UniProt P35221)	inactive: -0.026	inactive: 0.031	inactive: 0.002	inactive: -0.011	inactive: 0.106	inactive: 0.003	inactive: -0.043	inactive: -0.017	inactive: 0.007	inactive: 0.006
CSRP3 (UniProt P50461)	inactive: -0.071	inactive: 0.007	inactive: 0.121	inactive: -0.049	inactive: -0.056	inactive: -0.033	inactive: -0.182	inactive: -0.05	inactive: 0.023	inactive: -0.071
CSTF2 (UniProt P33240)	inactive: -0.023	inactive: 0.011	inactive: 0.014	inactive: -0.016	inactive: 0.024	inactive: -0.009	inactive: -0.099	inactive: 0.03	inactive: 0.011	inactive: 0.008
CRTAP (UniProt O75718)	inactive: 0.034	inactive: -0.077	inactive: 0.017	inactive: 0.011	inactive: -0.087	inactive: 0.006	inactive: 0.006	inactive: -0.009	inactive: 0.006	inactive: 0.028
CREB1 (UniProt P16220)	inactive: -0.032	inactive: 0.011	inactive: 0.011	inactive: -0.019	inactive: 0.01	inactive: -0.009	inactive: -0.033	inactive: -0.005	inactive: -0.004	inactive: 0.024
CTBP1 (UniProt Q13363)	inactive: -0.005	inactive: -0.031	inactive: -0.004	inactive: -0.016	inactive: -0.002	inactive: 0.009	inactive: -0.007	inactive: -0.006	inactive: 0.023	inactive: -0.159
CSTB (UniProt P04080)	inactive: -0.051	inactive: 0.089	inactive: -0.023	inactive: 0.069	inactive: 0.011	inactive: 0.025	inactive: -0.011	inactive: 0.023	inactive: -0.042	inactive: -0.143
CYB5R1 (UniProt Q9UHQ9)	inactive: 0.041	inactive: 0.062	inactive: -0.043	inactive: 0.021	inactive: -0.035	inactive: -0.022	inactive: 0.149	inactive: -0.018	inactive: 0.137	inactive: 0.061
CYP20A1 (UniProt Q6UW02)	inactive: -0.037	inactive: 0.057	inactive: -0.001	inactive: 0.019	inactive: -0.05	inactive: 0.002	inactive: 0.019	inactive: -0.008	inactive: 0.032	inactive: 0.031
CTDP1 (UniProt Q9Y5B0)	inactive: -0.022	inactive: -0.049	inactive: 0.068	inactive: -0.016	inactive: 0.025	inactive: 0.006	inactive: 0.069	inactive: -0.054	inactive: 0.028	inactive: 0.019
CWC27 (UniProt Q6UX04)	inactive: 0.039	inactive: 0.004	inactive: 0.014	inactive: 0.019	inactive: 0.009	inactive: -0.011	inactive: 0	inactive: 0.034	inactive: -0.001	inactive: -0.004
CT55 (UniProt Q8WUE5)	inactive: -0.008	inactive: 0.006	inactive: -0.22	inactive: 0.039	inactive: 0.01	inactive: 0.142	inactive: -0.048	inactive: -0.025	inactive: 0.016	inactive: 0.072
CS (UniProt O75390)	inactive: 0.024	inactive: 0.02	inactive: -0.027	inactive: -0.029	inactive: -0.025	inactive: -0.059	inactive: 0.029	inactive: -0.005	inactive: -0.042	inactive: -0.013
CTNNA2 (UniProt P26232)	inactive: -0.052	inactive: 0.045	inactive: 0.044	inactive: -0.024	inactive: 0.021	inactive: 0.011	inactive: -0.039	inactive: 0.009	inactive: 0	inactive: -0.08
CTIF isoform 2 (UniProt O43310)	inactive: -0.027	inactive: 0.019	inactive: 0.004	inactive: 0.023	inactive: 0.027	inactive: -0.01	inactive: -0.167	inactive: 0.068	inactive: -0.02	inactive: 0.016
CWF19L2 (UniProt Q2TBE0)	inactive: -0.014	inactive: -0.039	inactive: 0.057	inactive: 0.01	inactive: 0	inactive: 0.06	inactive: -0.021	inactive: -0.014	inactive: -0.177	inactive: 0.041

No new results follow: entries from further up.
Target	log2 fold change (alvocidib)	log2 fold change (Tubastatin A)	log2 fold change [1]	log2 fold change (defactinib)	log2 fold change [2]	log2 fold change (encorafenib)	log2 fold change [3]	log2 fold change (alisertib)	log2 fold change [4]	log2 fold change (gefitinib)
CSTB (UniProt P04080)	inactive: -0.051	inactive: 0.089	inactive: -0.023	inactive: 0.069	inactive: 0.011	inactive: 0.025	inactive: -0.011	inactive: 0.023	inactive: -0.042	inactive: -0.143
CYB5R1 (UniProt Q9UHQ9)	inactive: 0.041	inactive: 0.062	inactive: -0.043	inactive: 0.021	inactive: -0.035	inactive: -0.022	inactive: 0.149	inactive: -0.018	inactive: 0.137	inactive: 0.061
